Among the data in patent US20170056520A1 are binding values, retold here.

No constants are given. Whether binding was seen depends on the method and setting. Some entries that bind do so weakly or less than the wild type.

The target in this assay is recombinant human HLA-A1-IgG1.Fc fusion protein (human). Description: ELISA. On the technique in general: In an ELISA, binding on a coated surface is turned into a signal by an enzyme label.

B1: scFv of mAb specific for human HLA-A1 (from monoclonal antibody 4-35-7) (scFv)
scFv: DIQMTQSPSTLSASVGDRVTITCRASQSISNWLAWYQQKPGKAPNLLIYKASSLESGVPSRFSGSGSGTEFTLTISSLQPDDFATYYCQQYHDYSVTFGAGTKVEIKRGGGGSGGGGSGGGGSEVQLLESGGGLVQPGGSQRLSCVASGVPFSNYAMNWVRQAPGKGLEWVSSISGGGDRTFYADSVKGRFTISRDNSKNTLYLQMNSLGAGDTAVYYCAKTYYDFWSGYSRHLNSWGQGSLVTVSSGGGGSGGGGSC
Take B1: the binding result is “binds”.

B2: tetrazine-conjugated scFv specific for human HLA-A1 (scFv)
scFv: B1 scFv
modifications: C-terminal cysteine conjugated with Mal-PEG4-tetrazine
With B2, the binding entry was “binds”.
